The values that follow come from patent US5780243A, “Methods for the quantitative analysis of organic compounds” (Thaco Research, Ltd., priority 1996, dated 1998).

This series in a line: Competitive ELISA of analyte from fortified liver tissue homogenates (precision and recovery). Here is the method: The following method is a competitive enzyme linked immunosorbent assay (ELISA) for the assay of spectinomycin residues in various animal tissues and fluids and is applicable to total residue concentrations of approximately 0.1 ppm to in excess of 200 ppm in tissues.
A five-gram aliquot of tissue was weighed into a 250-mL centrifuge bottle. After the addition of 50 mL PBST extraction buffer (0.1% Tween-20 in 0.01M phosphate buffered saline, pH 7.2), sample was homogenized using a Polytron homogenizer. The homogenized sample was centrifuged at 5,000 g-av for 30 minutes at 10° C. to sediment the solids. Supernatant was decanted into a 250-mL graduated cylinder. The homogenization and sedimentation process was repeated two more times, the supernatants were combined and the final volume adjusted to 200 mL with extraction buffer.
To the combined supernatants, 1 mL of 4% sodium azide was added (final concentration 0.02%) to prevent microbial growth. The entire sample was further clarified by centrifugation and the supernatant was carefully decanted. A 4-mL aliquot of extract processed in this manner corresponds to 0.1 g of tissue.
A plate plan was laid out for each microtiter plate prior to the start of the assay. The plate plan designates wells for standard curves, antigen-negative wells, primary antibody negative wells, a positive control well and samples with replicates.
The coating antigen (100 μL) was added to each well according to the plate plan. Wells were selected as antigen-negative are coated with 0.01M PBS only. Plates were covered with sealing tape and lids, and sealed plates were incubated overnight at 4° C. A positive control will contain antibody instead of coating antigen.
The plates coated with coating antigen were removed from the refrigerator and were washed in three consecutive addition/aspiration steps with washing buffer (0.01% Tween-20 in 0.01M PBS). A washer/aspirator designed for washing 96-well microtiter plates (Handiwash; Dynatech Laboratories, Inc. or equivalent) was utilized.
After the third addition of washing buffer, wells were incubated with washing buffer at room temperature for approximately 3-5 minutes. The plate was then washed in two additional consecutive addition/aspiration steps. Excess washing buffer was aspirated from the wells and the plate was inverted and tapped dry on a paper towel or other absorbent surface.
All wells of the microtiter plate had 300 μL of Blocking Solution (1% BSA in 0.01M PBS) added to each well. The plates were incubated at room temperature for one hour or overnight at 4° C.
The washing procedure described above is repeated to remove excess BSA. The coated, blocked and washed plates were either used immediately or sealed with sealing tape and stored refrigerated (4° C.) for up to 3 days or frozen (-20° C.) for up to one month.
Ninety six low protein binding micro-tubes were arranged in a tube rack with an 8×12 array to correspond to the microtiter plate plan. Duplicate external standard curves were established. Remaining tubes contained up to seven replicates of the diluted tissue extracts to which was added 190 μL of diluted sample and 10 μL of the protein A purified antibody (pAIgG). Positive control tubes contained 200 μL PBST. To the antibody negative controls, 10 μL of 0.01M PBS buffer were added instead of pAIgG. All tubes were vortexed after the antibody addition, incubated for approximately one hour and 100 μL transferred from each tube to the corresponding well in the microtiter plate according to the plate plan. Plates were incubated for one hour at 37° C. or overnight at 4° C.
After incubation, plates were removed from the refrigerator and washed with washing buffer as described.
To each well 100 μL of the 1:5000 dilution of secondary antibody, goat, anti-rabbit IgG conjugated to alkaline phosphatase (Pierce Chemical Co.) was added and the plates were covered with a lid and incubated for one hour. […]
Background: ELISA stands for enzyme-linked immunosorbent assay.

Molecules are shown by their SMILES.

For `CNC1C(O)C(NC)C2OC3(O)C(=O)CC(C)OC3OC2C1O` (stereo not shown) [spectinomycin, decahydro-4a,7,9-trihydroxy-2-methyl-6,8-bis(methylamino)-4H-pyrano[2,3-b][1,4]benzodioxin-4-one], the “Tissue Concentration” value was 0.47 ± 0.01 µg/mL (fortified at 0.5, Day 1); 0.46 ± 0.01 µg/mL (fortified at 0.5, Day 3); 0.53 ± 0.02 µg/mL (fortified at 0.5, Day 13); 0.95 ± 0.07 µg/mL (fortified at 1, Day 1); 0.78 ± 0.09 µg/mL (fortified at 1, Day 3); 0.92 ± 0.05 µg/mL (fortified at 1, Day 13). For the same compound, the “Tissue Concentration” value (fortified at 2, Day 1) stood at 1.44 ± 0.32 µg/mL; the “Tissue Concentration” value (fortified at 2, Day 3) was found to be 1.82 ± 0.09 µg/mL; the “Tissue Concentration” value (fortified at 2, Day 13) came to 1.83 ± 0.09 µg/mL. The “% Recovery” value stood at 98% (fortified at 0.5, N 15); 88% (fortified at 1, N 15); 85% (fortified at 2, N 15). The “Avg Conc.” value was 0.49 µg/mL (fortified at 0.5, N 15); 0.88 µg/mL (fortified at 1, N 15); 1.7 µg/mL (fortified at 2, N 15). Besides, the “Percent recovery (range)” value (liver homogenates fortified at 0.5, 1.0 and 2.0 ppm) is recorded as 85%-98.
